Laboratory results: patent US12233115B2, “Long-acting parathyroid hormone” (Extend Biosciences, Inc., priority 2022, dated 2025)
At least one peptide structure holds a part that was inferred or is arguable (an end, a ring closure or a residue). For at least one compound, name, drawing or mass did not settle the structure.

Assay: Precipitation on agitation (OD600 after shaking in 96-well plate)
Format: physicochemical
Conditions: Table 14B: 1 mg/ml

C=C1CC[C@H](OCCCNC(=O)CCOCCOCCOCCOCCOCCOCCOCCOCCOCCOCCOCCOCCOCCOCCOCCOCCOCCOCCOCCOCCOCCOCCOCCOCCOCCOCCOCCOCCOCCOCCOCCOCCOCCOCCOCCOCCNC(=O)CCN2C(=O)CC(SC[C@H](NC(=O)[C@H](Cc3ccccc3)NC(=O)[C@H](CC(N)=O)NC(=O)[C@H](Cc3c[nH]cn3)NC(=O)[C@@H](NC(=O)[C@H](CC(=O)O)NC(=O)[C@H](CCC(N)=O)NC(=O)[C@H](CC(C)C)NC(=O)[C@H](CCCCN)NC(=O)[C@H](CCCCN)NC(=O)[C@H](CCCNC(=N)N)NC(=O)[C@H](CC(C)C)NC(=O)[C@H](Cc3c[nH]c4ccccc34)NC(=O)[C@H](CCC(=O)O)NC(=O)[C@@H](NC(=O)[C@H](CCCNC(=N)N)NC(=O)[C@H](CCC(=O)O)NC(=O)[C@H](CCSC)NC(=O)[C@H](CO)NC(=O)[C@H](CC(N)=O)NC(=O)[C@H](CC(C)C)NC(=O)[C@H](Cc3c[nH]cn3)NC(=O)[C@H](CCCCN)NC(=O)CNC(=O)[C@H](CC(C)C)NC(=O)[C@H](CC(N)=O)NC(=O)[C@H](Cc3c[nH]cn3)NC(=O)[C@H](CCSC)NC(=O)[C@H](CC(C)C)NC(=O)[C@H](CCC(N)=O)NC(=O)[C@@H](NC(=O)[C@H](CCC(=O)O)NC(=O)[C@H](CO)NC(=O)[C@@H](NC(=O)[C@@H](N)CO)C(C)C)[C@@H](C)CC)C(C)C)C(C)C)C(N)=O)C2=O)C/C1=C/C=C1\CCC[C@]2(C)[C@@H]([C@H](C)CCCC(C)(C)O)CC[C@@H]12 (stereo partly shown) [EXT608]
OD600 (10 mM Acetate pH 4.0, 4.5% mannitol, PS80 0.25%, shaking 308 h): 0.006
OD600 (10 mM Acetate pH 5.5, 4.5% mannitol, PS80 0%, shaking 20 h): 0.616
OD600 (10 mM Acetate pH 5.5, 4.5% mannitol, PS80 0%, shaking 28 h): 0.541
OD600 (10 mM Acetate pH 5.5, 4.5% mannitol, PS80 0%, shaking 44 h): 0.293
OD600 (10 mM Acetate pH 5.5, 4.5% mannitol, PS80 0%, shaking 52 h): 0.293
OD600 (10 mM Acetate pH 5.5, 4.5% mannitol, PS80 0%, shaking 140 h): 0.249
OD600 (10 mM Acetate pH 5.5, 4.5% mannitol, PS80 0%, shaking 188 h): 0.263
OD600 (10 mM Acetate pH 5.5, 4.5% mannitol, PS80 0%, shaking 308 h): 0.242
OD600 (10 mM Acetate pH 5.5, 4.5% mannitol, PS80 0.05%, shaking 20 h): 0.002
OD600 (10 mM Acetate pH 5.5, 4.5% mannitol, PS80 0.05%, shaking 28 h): 0.000
OD600 (10 mM Acetate pH 5.5, 4.5% mannitol, PS80 0.05%, shaking 44 h): 0.002
OD600 (10 mM Acetate pH 5.5, 4.5% mannitol, PS80 0.05%, shaking 52 h): 0.002
OD600 (10 mM Acetate pH 5.5, 4.5% mannitol, PS80 0.05%, shaking 140 h): 0.362
OD600 (10 mM Acetate pH 5.5, 4.5% mannitol, PS80 0.05%, shaking 188 h): 0.704
OD600 (10 mM Acetate pH 5.5, 4.5% mannitol, PS80 0.05%, shaking 308 h): 0.662
OD600 (10 mM Acetate pH 5.5, 4.5% mannitol, PS80 0.10%, shaking 20 h): −0.001
OD600 (10 mM Acetate pH 5.5, 4.5% mannitol, PS80 0.10%, shaking 28 h): 0.003
OD600 (10 mM Acetate pH 5.5, 4.5% mannitol, PS80 0.10%, shaking 44 h): 0.029
OD600 (10 mM Acetate pH 5.5, 4.5% mannitol, PS80 0.10%, shaking 52 h): 0.094
OD600 (10 mM Acetate pH 5.5, 4.5% mannitol, PS80 0.10%, shaking 140 h): 0.359
OD600 (10 mM Acetate pH 5.5, 4.5% mannitol, PS80 0.10%, shaking 188 h): 0.517
OD600 (10 mM Acetate pH 5.5, 4.5% mannitol, PS80 0.10%, shaking 308 h): 0.523
OD600 (10 mM Acetate pH 5.5, 4.5% mannitol, PS80 0.25%, shaking 20 h): 0.000
OD600 (10 mM Acetate pH 5.5, 4.5% mannitol, PS80 0.25%, shaking 28 h): 0.001
OD600 (10 mM Acetate pH 5.5, 4.5% mannitol, PS80 0.25%, shaking 44 h): 0.004
OD600 (10 mM Acetate pH 5.5, 4.5% mannitol, PS80 0.25%, shaking 52 h): 0.004
OD600 (10 mM Acetate pH 5.5, 4.5% mannitol, PS80 0.25%, shaking 140 h): 0.235
OD600 (10 mM Acetate pH 5.5, 4.5% mannitol, PS80 0.25%, shaking 188 h): 0.375
OD600 (10 mM Acetate pH 5.5, 4.5% mannitol, PS80 0.25%, shaking 308 h): 0.411
OD600 (10 mM Histidine pH 4.0, 4.5% mannitol, PS80 0%, shaking 20 h): −0.019
OD600 (10 mM Histidine pH 4.0, 4.5% mannitol, PS80 0%, shaking 28 h): 0.560
OD600 (10 mM Histidine pH 4.0, 4.5% mannitol, PS80 0%, shaking 44 h): 0.483
OD600 (10 mM Histidine pH 4.0, 4.5% mannitol, PS80 0%, shaking 52 h): 0.444
OD600 (10 mM Histidine pH 4.0, 4.5% mannitol, PS80 0%, shaking 140 h): 0.398
OD600 (10 mM Histidine pH 4.0, 4.5% mannitol, PS80 0%, shaking 188 h): 0.463
OD600 (10 mM Histidine pH 4.0, 4.5% mannitol, PS80 0%, shaking 308 h): 0.431
OD600 (10 mM Histidine pH 4.0, 4.5% mannitol, PS80 0.05%, shaking 20 h): 0.001
OD600 (10 mM Histidine pH 4.0, 4.5% mannitol, PS80 0.05%, shaking 28 h): 0.000
OD600 (10 mM Histidine pH 4.0, 4.5% mannitol, PS80 0.05%, shaking 44 h): 0.003
OD600 (10 mM Histidine pH 4.0, 4.5% mannitol, PS80 0.05%, shaking 52 h): 0.003
OD600 (10 mM Histidine pH 4.0, 4.5% mannitol, PS80 0.05%, shaking 140 h): 0.618
OD600 (10 mM Histidine pH 4.0, 4.5% mannitol, PS80 0.05%, shaking 188 h): 0.574
OD600 (10 mM Histidine pH 4.0, 4.5% mannitol, PS80 0.05%, shaking 308 h): 0.423
OD600 (10 mM Histidine pH 4.0, 4.5% mannitol, PS80 0.10%, shaking 20 h): 0.001
OD600 (10 mM Histidine pH 4.0, 4.5% mannitol, PS80 0.10%, shaking 28 h): 0.001
OD600 (10 mM Histidine pH 4.0, 4.5% mannitol, PS80 0.10%, shaking 44 h): 0.005
